Data published in publication PMC11655644, “Cardiocutaneous syndrome is caused by aggregation of iASPP mutants” (Cell Death Discovery, 2024).
These are yes or no findings as the source states them, for the method shown. In cells and extracts the contact can be indirect. A result given as binding can be weak or reduced; the word gives no strength. Where a sequence is shown, tags or fusion partners need not be part of it. Blank lines part the entries; values can stand above or below the binder they belong to.

Target: HSP70 (human (endogenous in H1299))
Assay: co-IP; H1299 transiently transfected with Myc-iASPP; RIPA lysate centrifuged, diluted 1:4 with IP buffer; endogenous HSP70 precipitated with anti-HSP70 and Protein G Dynabeads, anti-Myc blot

binding: no binding
B1: Myc-tagged iASPP A620P (protein, UniProt Q8WUF5 2-828)
chain: DSEAFQSARDFLDMNFQSLAMKHMDLKQMELDTAAAKVDELTKQLESLWSDSPAPPGPQAGPPSRPPRYSSSSIPEPFGSRGSPRKAATDGADTPFGRSESAPTLHPYSPLSPKGRPSSPRTPLYLQPDAYGSLDRATSPRPRAFDGAGSSLGRAPSPRPGPGPLRQQGPPTPFDFLGRAGSPRGSPLAEGPQAFFPERGPSPRPPATAYDAPASAFGSSLLGSGGSAFAPPLRAQDDLTLRRRPPKAWNESDLDVAYEKKPSQTASYERLDVFARPASPSLQLLPWRESSLDGLGGTGKDNLTSATLPRNYKVSPLASDRRSDAGSYRRSLGSAGPSGTLPRSWQPVSRIPMPPSSPQPRGAPRQRPIPLSMIFKLQNAFWEHGASRAMLPGSPLFTRAPPPKLQPQPQPQPQPQSQPQPQLPPQPQTQPQTPTPAPQHPQQTWPPVNEGPPKPPTELEPEPEIEGLLTPVLEAGDVDEGPVARPLSPTRLQPALPPEAQSVPELEEVARVLAEIPRPLKRRGSMEQAPAVALPPTHKKQYQQIISRLFHRHGGPGPGGPEPELSPITEGSEARAGPPAPAPPAPIPPPAPSQSSPPEQPQSMEMRSVLRKAGSPRKPRRARLNPLVLLLDAALTGELEVVQQAVKEMNDPSQPNEEGITALHNAICGANYSIVDFLITAGANVNSPDSHGWTPLHCAASCNDTVICMALVQHGAAIFATTLSDGATAFEKCDPYREGYADCATYLADVEQSMGLMNSGAVYALWDYSAEFGDELSFREGESVTVLRRDGPEETDWWWAALHGQEGYVPRNYFGLFPRVKPQRSKV

binding: binds
B2: Myc-tagged iASPP Y747X (domain or fragment, UniProt Q8WUF5 2-746)
chain: DSEAFQSARDFLDMNFQSLAMKHMDLKQMELDTAAAKVDELTKQLESLWSDSPAPPGPQAGPPSRPPRYSSSSIPEPFGSRGSPRKAATDGADTPFGRSESAPTLHPYSPLSPKGRPSSPRTPLYLQPDAYGSLDRATSPRPRAFDGAGSSLGRAPSPRPGPGPLRQQGPPTPFDFLGRAGSPRGSPLAEGPQAFFPERGPSPRPPATAYDAPASAFGSSLLGSGGSAFAPPLRAQDDLTLRRRPPKAWNESDLDVAYEKKPSQTASYERLDVFARPASPSLQLLPWRESSLDGLGGTGKDNLTSATLPRNYKVSPLASDRRSDAGSYRRSLGSAGPSGTLPRSWQPVSRIPMPPSSPQPRGAPRQRPIPLSMIFKLQNAFWEHGASRAMLPGSPLFTRAPPPKLQPQPQPQPQPQSQPQPQLPPQPQTQPQTPTPAPQHPQQTWPPVNEGPPKPPTELEPEPEIEGLLTPVLEAGDVDEGPVARPLSPTRLQPALPPEAQSVPELEEVARVLAEIPRPLKRRGSMEQAPAVALPPTHKKQYQQIISRLFHRHGGPGPGGPEPELSPITEGSEARAGPPAPAPPAPIPPPAPSQSSPPEQPQSMEMRSVLRKAGSPRKARRARLNPLVLLLDAALTGELEVVQQAVKEMNDPSQPNEEGITALHNAICGANYSIVDFLITAGANVNSPDSHGWTPLHCAASCNDTVICMALVQHGAAIFATTLSDGATAFEKCDPYREGYADCAT
